## Percent effect of library compounds

The filed quantity is “Percent Effect” (%). How 0% and 100% were set is not recorded. Most values in the screen are low, and negative values occur. Compounds were drawn at random from those tested, without regard to their results. Two or more numbers in one place are separate tests of the same structure; such repeats can differ widely.

Mtb cholesterol medium: 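Growth of Mycobacterium tuberculosis over 4 days (cholesterol / DPPC medium with tyloxapol); the read-out is not stated. Tested at 50 µM. Direction is inferred from retests: higher values go with more growth inhibition. About 69,000 compounds were tested under these conditions; 0.54% (about 370) showed 50% or more at least once.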
Mtb glucose medium: 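Whole-cell growth test on Mycobacterium tuberculosis, read after 3 days in glucose-containing 7H9 medium; the read-out is not stated. Concentration: 50 µM. Direction is inferred from retests: higher values go with more growth inhibition. About 69,000 compounds were tested under these conditions; 1.1% (about 760) showed 50% or more at least once.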

| Compound | Mtb cholesterol medium | Mtb glucose medium |
|---|---|---|
| `O=C(CN1CCC(c2ccnn2CCO)CC1)NCc1ccco1` | -9.411 | -28.53 |
| `Cc1ccn(-c2ccccc2NCc2cccnc2)n1` | 23.78 | 24.23 & 25.61 |
| `Cc1ccsc1-c1nccn1C1CC(=O)N(C(C)C)C1` (centres undefined) | 0.01772 | -9.859 |
| `O=S(=O)(C1CC1)N1CCOC2(CCCN(c3cccc(F)c3)C2)C1` (centres undefined) | -7.635 | -40.58 & -6.476 |
| `COc1cccc(N2CCN(Cc3ccc(NC(C)=O)cc3)CC2=O)c1` | -15.18 | -1.382 & -4.715 |
| `Cc1c[nH]c(CN2CCN(C)C3(CCC(=O)N(CC4CC4)CC3)C2)n1` (centres undefined) | -28.93 & -2.303 | -39.1 |
| `Cc1ccc(CN2CCC3(CC2)NC(=O)CC3c2ccccc2)s1.O=C(O)C(F)(F)F` (centres undefined) | -2.751 & -16.62 | -10.46 |
| `CN(CCn1cccn1)S(=O)(=O)c1cccc(Cl)c1C#N` | 1.865 | 6.497 |
| `COCC1CN(Cc2sccc2C)Cc2nnn(CC3CC3)c21.O=C(O)C(F)(F)F` (centres undefined) | 4.026 | 22.71 & 9.06 |
| `O=C(c1n[nH]cc1Cl)N1CCOCC1` | 4.147 | -2.002 |
| `C=C(C)CNC(C)c1ccc(S(C)(=O)=O)c(F)c1` (centres undefined) | 3.663 | -3.855 |
| `N#Cc1ccc(N2CCC(OCCc3ccccc3)CC2)nc1` | 39.29 | 52.02 |
| `Cc1cccc(C(C(=O)NCc2nc(-c3cccnc3)no2)N(C)C)c1` (centres undefined) | -4.717 | -16.47 |
| `Cc1ccc(CNC(=O)Nc2cc(C(F)(F)F)c[nH]c2=O)cn1` | -18.06 | -10.34 & -2.787 |
| `Cc1cccc(C(=O)N2CCC(C(=O)c3cc(F)ccc3F)CC2)n1` | -3.605 | 5.396 |
| `Cl.FC(F)CNc1cnc(C2CCCN2)cn1` (centres undefined) | -4.595 & -21.03 | -23.67 |
| `Cc1cccc(N2CCCC3(C2)CN(c2nncs2)CCO3)c1` (centres undefined) | -10.23 & -62.33 | -18.5 & -4.72 |
| `CCS(=O)(=O)N1CCC2(CC1)CC(Oc1ccccn1)CO2.O=C(O)C(F)(F)F` (centres undefined) | 1.033 | 0.1268 |
| `CN(Cc1ccc2nsnc2c1)C(=O)Cn1ncc(N(C)C)cc1=O` | 14.76 | -17.38 |
| `COC(=O)c1ccc2ccn(CC3CCCO3)c(=O)c2c1` (centres undefined) | 10.4 | 3.174 & -2.827 |
| `CN1CCN(C(=O)c2csnn2)c2ccccc21` | -15.95 | -5.991 & -3.991 |
| `CC(C)c1ccc(C2CC(=O)Nc3c2cnn3C)cc1` (centres undefined) | -30.99 | -11.68 |
| `O=C(COCc1nc(-c2ccncc2)no1)N1CCCC1` | -8.183 | -2.336 |
| `O=C(c1ccco1)N1CCC(CSCc2ccco2)CC1` | 12.5 | 12.49 |
| `CCn1cc(Cn2cc(Cl)c(N)n2)c(C)n1` | 10.72 | -2.075 |
| `CCCc1nc(N(C)Cc2ccco2)c2c(n1)c(C)nn2CC` | 53.88 | 58.5 |
| `Cc1ccc(CN2CCCC(c3cncc(C)n3)C2)cn1` (centres undefined) | -1.032 | 15.38 |
| `CC(C)[C@@H]1CN(c2ccc(F)cn2)C[C@H]1NS(C)(=O)=O` | -24.12 | -27.19 & 0.127 |
| `c1cnc(NCc2noc3c2CN(c2cnccn2)CC3)nc1` | -0.1576 | 10.58 |
| `O=C(NCCn1ccnc1)N1CCN(Cc2cccnc2)CC1` | -4.837 | -11.76 |
| `Cn1nc(C(=O)N2CCCCCC2)cc1NC(=O)c1ccccc1` | -13.86 | 14.85 |
| `Cc1ccc2c(c1)CN(C(=O)c1cccnc1)C(CN(C)C)CO2.Cl` (centres undefined) | -10.56 | 2.677 |
| `Cc1nc(CNC(=O)NCC2(C)CCCc3ccccc32)no1` (centres undefined) | 3.568 | 6.212 & -3.859 |
| `CN1CSC[C@H]1C(=O)N1CCC(Cc2ccccc2F)CC1` | -12.93 | 5.019 & -5.745 |
| `COc1cc(C(=O)Nc2nc(C)no2)ccc1OC(F)F` | 3.319 | 21.45 |
| `O=C(c1cccs1)N1CCCn2cnc(COCC3CC3)c2C1` | 0.7346 & -13.78 | -16.19 |
| `COc1ccc(CN2CC(n3cccn3)C2)cc1F` | 12.32 | 8.841 |
| `CC(C)(C)OC(=O)N1CCCCC1C(=O)NCc1cc[nH]n1` (centres undefined) | -5.835 | -13.28 |
| `CCC1=NC2(CCC(C(=O)Nc3ccc(C)nc3)CC2)C(=O)N1C` (centres undefined) | 8.415 | 37.67 |
| `O=C(O)C(F)(F)F.[H][C@@]12CN(CCc3ccccc3)C[C@H](C(=O)N3CCCO3)[C@]1([H])CCO2` | 14.85 | 15.93 |
| `O=C(CCCc1ccc(F)cc1)N1C[C@@H](CN2CCOCC2)[C@@H](CO)C1` | -16.08 | -8.636 & -18.94 |
| `[H][C@]12CC[C@]([H])(CN(Cc3ccc(F)cc3)C1)N(C(=O)Cc1cccnc1)C2` | -5.559 | -29.16 |
| `O=C(c1ccncc1)N1CCC(Cc2cnc3[nH]ccc3c2)CC1` | 11.63 | 17.04 |

The first 5 entries again:

* O=C(CN1CCC(c2ccnn2CCO)CC1)NCc1ccco1 : Mtb cholesterol medium: -9.411%; Mtb glucose medium: -28.53%
* Cc1ccn(-c2ccccc2NCc2cccnc2)n1 : Mtb cholesterol medium: 23.78%; Mtb glucose medium: 24.23% & 25.61%
* Cc1ccsc1-c1nccn1C1CC(=O)N(C(C)C)C1 (centres undefined) : Mtb cholesterol medium: 0.01772%; Mtb glucose medium: -9.859%
* O=S(=O)(C1CC1)N1CCOC2(CCCN(c3cccc(F)c3)C2)C1 (centres undefined) : Mtb cholesterol medium: -7.635%; Mtb glucose medium: -40.58% & -6.476%
* COc1cccc(N2CCN(Cc3ccc(NC(C)=O)cc3)CC2=O)c1 : Mtb cholesterol medium: -15.18%; Mtb glucose medium: -1.382% & -4.715%

Data taken from ChEMBL document CHEMBL3988442, “University of Dundee, Small-Polar-MMV Screening Library” (2021).